Earlier results as cited in PMC6534257, “Leishmania infantum arginase: biochemical characterization and inhibition by naturally occurring phenolic substances” (Journal of Enzyme Inhibition and Medicinal Chemistry, 2019).

System: axenic amastigote forms of L. donovani
Design: method as in PMID 16569852
Settings: L. donovani axenic amastigotes vs L9 cells ref 36; cited from earlier work

## COc1cc(-c2oc3cc(O)cc(O)c3c(=O)c2O)ccc1O [Isorhamnetin, isorhamnetin]
  SI (parasite versus myoblast lineage cells L9): 10.7
